Reference: PubChem BioAssay AID328 (DTP/NCI, 2004)
The list is a part of this screen's results and no random one: it is rich in T/C values a quarter to a half above the control, in often repeated tests (any T/C) and in doses without a T/C. Further doses and runs are listed elsewhere. T/C: endpoint of the treated group in % of that of the vehicle group. Some doses have a count of surviving animals in place of a T/C: the source holds a T/C of zero for them, seemingly a mark for toxic or unscored doses. Some survivor counts are full or nearly so, which does not show that the dose was tolerated: survival well below the control is almost never listed, so the zero probably covers shortened survival too. Counts of survivors are from the toxicity check (mostly the fifth day) where no day follows; animals may have died later. Schedules are NCI's codes, read here as Q, the interval in days (D) or hours (H), X, the number of doses. Some molecules as drawn cover several salts, stereoisomers or complexes of the source; a dose is that of the sample tested. Where survival is the endpoint, the PubChem record calls one and a half times the control and up active, and a quarter to a half above the control has no call in these data; cut-offs in other NCI protocols can differ. Some entries were tested several times; their values stand side by side, smallest first. Some T/C values carry the count of animals alive at the toxicity check (mostly the fifth day); without a count, all were alive then.

Tested on: BDF1 mice, P388 leukemia ip, median survival T/C
Assay: NCI In Vivo Anticancer Drug Screen. Data for tumor model P388 Leukemia (intraperitoneal) in B6D2F1 (BDF1) mice
Details: T/C endpoint: median survival time, higher T/C = longer survival
Method in brief: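 Vehicle-dosed animals serve as the reference; survival of compound-dosed, tumour-implanted mice is divided by it.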

[1] = dose: 100.0 mg/kg/injection, schedule: Q04DX003 (ip), vehicle: saline with Tween-80
[2] = dose: 100.0 mg/kg/injection, schedule: Q01DX009 (ip), vehicle: saline
[3] = dose: 25.0 mg/kg/injection, schedule: Q01DX009 (ip), vehicle: saline with Tween-80

COc1cccc2c1C(=O)c1c(O)c3c(c(O)c1C2=O)C[C@@](O)(C(C)=O)C[C@@H]3OC1CC(N(Cc2ccccc2)Cc2ccccc2)C(O)C(C)O1 (stereo partly drawn)
T/C (dose: 18.8 mg/kg/injection, schedule: Q04DX003 (ip), vehicle: water): 127 % of control
T/C (dose: 75.0 mg/kg/injection, schedule: Q04DX003 (ip), vehicle: water): 134 % of control

O=C1CN(CCl)C(=O)CN1CCl
survivor count (dose: 12.5 mg/kg/injection, schedule: Q01DX009 (ip), vehicle: water): 6 of 6

C[C@]12CC[C@H]3[C@@H](CC[C@]4(O)C[C@@H](O)CC[C@]34C=O)[C@@]1(O)CC[C@@H]2C1=CC(=O)OC1
survivor count (dose: 50.0 mg/kg/injection, schedule: Q01DX010 (ip), vehicle: carboxymethylcellulose (CMC)): 3 of 6
survivor count (dose: 100.0 mg/kg/injection, schedule: Q01DX009 (ip), vehicle: Klucel (hydroxypropylcellulose) (HPC)): 3 of 6
T/C (dose: 200.0 mg/kg/injection, schedule: Q01DX009 (ip), vehicle: Klucel (hydroxypropylcellulose) (HPC)): 130 % of control [5 of 6 alive]

Cc1cccc(NC(=O)N(CCCl)N=O)c1
T/C (dose: 0.05 mg/kg/injection, schedule: Q01DX009 (ip), vehicle: saline): 130 % of control
T/C (dose: 0.1 mg/kg/injection, schedule: Q01DX009 (ip), vehicle: saline): 130 % of control
T/C (dose: 0.2 mg/kg/injection, schedule: Q01DX009 (ip), vehicle: saline): 141 % of control
survivor count [1]: 0 of 6
survivor count (dose: 200.0 mg/kg/injection, schedule: Q04DX003 (ip), vehicle: saline with Tween-80): 0 of 6
survivor count (dose: 400.0 mg/kg/injection, schedule: Q04DX003 (ip), vehicle: saline with Tween-80): 0 of 6

C/C=C/C(=O)OCC1CC[N+](C)([O-])C1 (stereo not drawn)
survivor count [2]: 4 of 4
survivor count (dose: 400.0 mg/kg/injection, schedule: Q01DX009 (ip), vehicle: saline): 4 of 4

CC(=O)Nc1cscc1NC(C)=O
T/C [3]: 126 % of control
T/C (dose: 200.0 mg/kg/injection, schedule: Q01DX009 (ip), vehicle: saline with Tween-80): 128 % of control

CC[n+]1c(-c2ccccc2)c2cc(N)ccc2c2ccc(N)cc21
T/C (dose: 0.78 mg/kg/injection, schedule: Q01DX009 (ip), vehicle: saline): 133 % of control
T/C (dose: 1.56 mg/kg/injection, schedule: Q01DX009 (ip), vehicle: water): 140 % of control
T/C (dose: 2.5 mg/kg/injection, schedule: Q01DX010 (ip), vehicle: saline): 133 and 140 % of control
T/C (dose: 3.13 mg/kg/injection, schedule: Q01DX009 (ip), vehicle: water): 143 % of control
T/C (dose: 5.0 mg/kg/injection, schedule: Q01DX010 (ip), vehicle: saline): 133 % of control
survivor count (dose: 18.0 mg/kg/injection, schedule: Q01DX009 (ip), vehicle: saline): 3 of 6
survivor count [3]: 5 of 6
survivor count (dose: 25.0 mg/kg/injection, schedule: Q01DX009 (ip), vehicle: water): 5 of 5
survivor count (dose: 50.0 mg/kg/injection, schedule: Q01DX009 (ip), vehicle: saline with Tween-80): 4 of 6
survivor count (dose: 50.0 mg/kg/injection, schedule: Q01DX009 (ip), vehicle: saline): 5 of 6
survivor count [2]: 2 of 6
survivor count (dose: 200.0 mg/kg/injection, schedule: Q01DX009 (ip), vehicle: saline): 0 of 6

C#CCOC1CCCCO1 (stereo not drawn)
T/C (dose: 150.0 mg/kg/injection, schedule: Q01DX009 (ip), vehicle: saline with Tween-80): 125 % of control
T/C (dose: 225.0 mg/kg/injection, schedule: Q01DX009 (ip), vehicle: saline with Tween-80): 145 % of control
T/C (dose: 335.0 mg/kg/injection, schedule: Q01DX009 (ip), vehicle: saline with Tween-80): 135 % of control

c1cc[c]([Sn]([O][Sn]([c]2ccccc2)([c]2ccccc2)[c]2ccccc2)([c]2ccccc2)[c]2ccccc2)cc1
survivor count (dose: 50.0 mg/kg/injection, schedule: Q04DX003 (ip), vehicle: saline with Tween-80): 4 of 6
survivor count [1]: 0 of 6

OCCN1CCN(CC/C=C2/c3ccccc3Sc3ccc(C(F)(F)F)cc32)CC1
T/C (dose: 10.0 mg/kg/injection, schedule: Q04DX003 (ip), vehicle: saline): 125 % of control
survivor count (dose: 20.0 mg/kg/injection, schedule: Q01DX009 (ip), vehicle: saline): 6 of 6
T/C (dose: 20.0 mg/kg/injection, schedule: Q04DX003 (ip), vehicle: saline): 134 % of control
survivor count (dose: 40.0 mg/kg/injection, schedule: Q01DX009 (ip), vehicle: saline): 3 of 6
T/C (dose: 40.0 mg/kg/injection, schedule: Q04DX003 (ip), vehicle: saline): 145 % of control
